# Source: PubChem BioAssay (Tox21)
# Sequences of proteins named here, by UniProt entry; tags and fusion partners are left off.
# UniProt P10635, whole entry, looked up: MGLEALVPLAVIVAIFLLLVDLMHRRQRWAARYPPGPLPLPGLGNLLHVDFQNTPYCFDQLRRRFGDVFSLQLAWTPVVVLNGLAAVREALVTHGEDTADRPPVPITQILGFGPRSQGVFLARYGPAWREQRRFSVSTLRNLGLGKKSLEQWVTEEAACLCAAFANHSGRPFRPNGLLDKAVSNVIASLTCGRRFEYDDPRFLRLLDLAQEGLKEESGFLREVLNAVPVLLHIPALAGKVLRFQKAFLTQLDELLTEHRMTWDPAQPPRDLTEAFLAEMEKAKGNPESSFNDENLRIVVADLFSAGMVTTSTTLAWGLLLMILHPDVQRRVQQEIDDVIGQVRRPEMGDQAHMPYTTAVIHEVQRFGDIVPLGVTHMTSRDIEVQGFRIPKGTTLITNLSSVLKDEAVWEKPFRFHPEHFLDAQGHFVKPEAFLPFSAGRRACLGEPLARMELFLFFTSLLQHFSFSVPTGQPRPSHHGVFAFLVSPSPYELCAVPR
# The inconclusive results got no clear call from the source; some entries with a clear call stand among them for comparison. Potencies of inconclusive entries are doubtful fits and often do not repeat. The source holds several records for some structures; these can differ, active in one and inactive in another. Activity calls are given as the source filed them. Calls follow the shape of the dose curve; as a rule, active = well fitted inhibition curve with a large enough effect in the repeat runs; inconclusive = weak or mixed curves; inactive = no such curve, though single readings can be large or run the other way.
# Biological target: Cytochrome P450 2D6 (Homo sapiens) (UniProt P10635)
# Experiment: Cytochrome P450 Family 2 Subfamily D Member 6 (CYP2D6) small molecule antagonists: luciferase reporter qHTS assay (AID 1671196); also: nearly all actives have a fitted effect of over 50% in size
# Details: P450-Glo CYP2D6 enzyme assay, luciferin luminescence, 1 h; series mostly up to 115 µM; activity change, negative = inhibition: at the top concentration
# Text: U.S. Tox21 Program National Center for Advancing Translational Sciences [NCATS] U.S. Environmental Protection Agency [EPA] National Institutes of Environmental Health Sciences [NIEHS] National Toxicology Program [NTP] U.S. Food and Drug Administration [FDA] Tox21 Assay Overview: Cytochrome P450 (CYP) enzymes are membrane-bound hemeproteins that play a key role in metabolism of drugs and xenobiotics. Evaluation of the effect of chemicals on CYP isozymes is useful to minimize the adverse drug reactions and toxicities in drug development process. Tox21 chemicals were tested for their effect on CYP enzyme activities by using P450-Glo (TM) screening systems (Promega Corporation, Madison, WI). These systems provide a luminescent method containing proluciferin substrates and are converted to luciferin products by CYP isozymes. The luciferin products formed are detected with a luciferin detection reagent, and the amount of light produced is proportional to CYP activity. P450-Glo (TM) CYP2D6 screening system (Catalog. No. V9890) was used to detect the compounds that interfere in CYP2D6 activity.
# Tox21 Assay Protocol Summary: Two ul of enzyme-substrate mix was dispensed into medium binding white/solid 1536-well plates (Greiner Bio-One North America Inc., Monroe, NC) using a BioRaptr Flying Reagent Dispenser (FRD, Beckman Coulter, Brea, CA). […] The assay plates were incubated at room temperature for 10 min. Then 2 ul of NADPH regeneration solution was added to each well of the assay plates using an FRD and incubated at room temperature for 1 h. The reaction was stopped by adding 4 ul of detection reagent using an FRD and after 20 min incubation at room temperature the luminescence signal was measured using a ViewLux plate reader (Perkin Elmer, Shelton, CT). Data were expressed as relative luminescence units.
# % is scaled to controls: 0 for no effect and ±100 for the full control effect; potency is read from the fitted curve at half-maximal effect.
SMILES,Potency,"activity change, negative = inhibition"
OCCCBr,inconclusive: 31.7 µM [inhibitor],–
NCCc1cc(O)c(O)cc1O,"inconclusive: 12.3 µM [inhibitor, full curve, poor fit]",–
COc1cc(N)c(Cl)cc1C(=O)NC1CN2CCC1CC2 (stereo not given),active: 13.8 µM,–
CC(=O)NC1CCSC1=O (stereo not given),–,inactive: -9.41% [at 53 µM]
CC(Cl)CCl (stereo not given),–,inactive: -10.3%
BrC(Br)C(Br)(Br)Br,"inconclusive: 35.8 µM [inhibitor, partial curve]",–
OC[P+](CO)(CO)CO,"inconclusive: 90.5 µM [inhibitor, partial curve, poor fit] and inactive",–
CCCCN(CC)C(=O)SCCC,"inconclusive: 63.9 µM [inhibitor, partial curve]",–
C=C1C[C@@H]2[C@H](CC[C@]3(C)C(=O)CC[C@@H]23)[C@@]2(C)C=CC(=O)C=C12,inconclusive: 34.7 µM [inhibitor],–
ClC(Cl)=C(Cl)C(Cl)=C(Cl)Cl,"inconclusive: 39.6 µM [inhibitor, partial curve]",–
CNC(=O)Oc1cccc2ccccc12,"inconclusive: 89.4 µM [inhibitor, partial curve, poor fit]",–
CCC(CC)Nc1c([N+](=O)[O-])cc(C)c(C)c1[N+](=O)[O-],"inconclusive: 64.1 µM [inhibitor, partial curve, poor fit]",–
CN(C)c1ccccc1,inactive,–
CCCCOCC1CO1 (stereo not given),"inconclusive: 56.7 µM [inhibitor, partial curve, poor fit]",–
O=C(OC1CCCCC1)c1ccccc1C(=O)OC1CCCCC1,–,inactive: -4.02%
O=C(O)CCCCCCNC1c2ccccc2CCc2ccccc21,"inconclusive: 17.4 µM [inhibitor, partial curve]",–
CCOc1cc(OP(=S)(OC)OC)nc(CC)n1,–,inactive: -12.6%
O=NN1CCNCC1,inconclusive: 35.2 µM [inhibitor],–
Clc1ccc(C(OCCN2CCCCC2)c2ccccc2)cc1 (stereo not given),active: 0.174 µM,–
O=C(O)C(Br)Br,"inconclusive: 39.9 µM [inhibitor, partial curve]",–

SMILES,Potency,"activity change, negative = inhibition"
CCc1ccccc1N,"inconclusive: 63.3 µM [inhibitor, partial curve]",–
O=C1NCN(c2ccccc2)C12CCN(CC1COc3ccccc3O1)CC2 (stereo not given),active: 0.11 µM,–
CCOS(=O)(=O)OCC,"inconclusive: 71.1 µM [inhibitor, partial curve] and inactive",–
CC(Cc1ccccc1)N(C)Cc1ccco1 (stereo not given),active: 0.776 µM,–
[O]=[Cr][O][Cr]=[O],active: 2.58 µM,–
CC(=O)/C=C/c1ccc2c(c1)OCO2,active: 25.3 µM,–
COCCOCCO,"inconclusive: 56.4 µM [inhibitor, partial curve]",–
CC(=O)Nc1cc([As](=O)(O)O)ccc1O,"inconclusive: 38.9 µM [inhibitor, single point]",–
COP(=S)(Oc1cc(Cl)c(Br)cc1Cl)c1ccccc1 (stereo not given),inconclusive: 89.4 µM [inhibitor],–
N#CCC#N,"inconclusive: 25.2 µM [inhibitor, full curve]",–
Clc1cc(C(Cl)(Cl)Cl)cnc1Cl,–,inactive: 2.44%
O=[N+]([O-])/N=C1\NCCN1Cc1ccc(Cl)nc1,inactive,–
CCC(=O)OC1(c2ccccc2)CCN(C)CC1,active: 37.5 µM,–
CN(C)N=O,inactive,–
C/C=C/C=O,–,inactive: -0.978%
Nc1cc(Cl)cc(C(=O)O)c1Cl,active: 39.6 µM,–
Fc1cccc(Cl)c1CCl,"inconclusive: 12.6 µM [inhibitor, partial curve]",–
CCN(CC)C(=O)SCc1ccc(Cl)cc1,"inconclusive: 32.7 µM [inhibitor, partial curve]",–
COc1ccc(C=O)cc1OC,"inconclusive: 36 µM [inhibitor, partial curve]",–
COc1cccc2c1C(=O)c1c(O)c3c(c(O)c1C2=O)C[C@@](O)(C(=O)CO)CC3OC1CC(N2CCOC(OC)C2)C(O)C(C)O1 (stereo not given in full),"inconclusive: 15.5 µM [inhibitor, full curve]",–

# Reformatted: 3 of the compounds above
SMILES | Potency | activity change, negative = inhibition
COCCOCCO | inconclusive: 56.4 µM [inhibitor, partial curve] | –
N#CCC#N | inconclusive: 25.2 µM [inhibitor, full curve] | –
Nc1cc(Cl)cc(C(=O)O)c1Cl | active: 39.6 µM | –
